No constants are given. Whether binding was seen depends on the method and setting. Binding seen in cells or lysates may run through a third protein. Binding calls can cover weak binding; strength is not graded here.

Chains of the proteins cited; added tags and fusions are not shown. Lines headed by an entry give the natural chain unless they say otherwise; changes in a name come on top. Residues count along the entry.
UniProt Q9D5V5: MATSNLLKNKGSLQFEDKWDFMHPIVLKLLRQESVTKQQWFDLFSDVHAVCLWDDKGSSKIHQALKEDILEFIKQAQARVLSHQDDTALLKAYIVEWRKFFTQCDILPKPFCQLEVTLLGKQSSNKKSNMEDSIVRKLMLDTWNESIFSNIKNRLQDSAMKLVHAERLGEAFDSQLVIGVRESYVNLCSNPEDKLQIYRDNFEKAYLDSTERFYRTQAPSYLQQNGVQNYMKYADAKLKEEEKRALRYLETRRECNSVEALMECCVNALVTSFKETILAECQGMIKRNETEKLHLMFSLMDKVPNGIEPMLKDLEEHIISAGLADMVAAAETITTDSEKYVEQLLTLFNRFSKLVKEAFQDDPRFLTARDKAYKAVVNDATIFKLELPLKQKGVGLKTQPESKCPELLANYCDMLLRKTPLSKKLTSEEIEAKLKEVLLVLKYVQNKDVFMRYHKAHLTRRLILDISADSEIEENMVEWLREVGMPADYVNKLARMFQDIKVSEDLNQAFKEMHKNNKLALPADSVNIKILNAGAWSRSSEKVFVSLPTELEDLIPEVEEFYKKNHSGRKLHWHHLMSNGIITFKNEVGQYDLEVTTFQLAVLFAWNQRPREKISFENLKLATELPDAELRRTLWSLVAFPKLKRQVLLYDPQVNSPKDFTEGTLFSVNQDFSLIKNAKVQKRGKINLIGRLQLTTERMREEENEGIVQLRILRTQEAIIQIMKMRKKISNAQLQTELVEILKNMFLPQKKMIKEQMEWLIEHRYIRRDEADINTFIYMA
UniProt P29317, residues 24-976: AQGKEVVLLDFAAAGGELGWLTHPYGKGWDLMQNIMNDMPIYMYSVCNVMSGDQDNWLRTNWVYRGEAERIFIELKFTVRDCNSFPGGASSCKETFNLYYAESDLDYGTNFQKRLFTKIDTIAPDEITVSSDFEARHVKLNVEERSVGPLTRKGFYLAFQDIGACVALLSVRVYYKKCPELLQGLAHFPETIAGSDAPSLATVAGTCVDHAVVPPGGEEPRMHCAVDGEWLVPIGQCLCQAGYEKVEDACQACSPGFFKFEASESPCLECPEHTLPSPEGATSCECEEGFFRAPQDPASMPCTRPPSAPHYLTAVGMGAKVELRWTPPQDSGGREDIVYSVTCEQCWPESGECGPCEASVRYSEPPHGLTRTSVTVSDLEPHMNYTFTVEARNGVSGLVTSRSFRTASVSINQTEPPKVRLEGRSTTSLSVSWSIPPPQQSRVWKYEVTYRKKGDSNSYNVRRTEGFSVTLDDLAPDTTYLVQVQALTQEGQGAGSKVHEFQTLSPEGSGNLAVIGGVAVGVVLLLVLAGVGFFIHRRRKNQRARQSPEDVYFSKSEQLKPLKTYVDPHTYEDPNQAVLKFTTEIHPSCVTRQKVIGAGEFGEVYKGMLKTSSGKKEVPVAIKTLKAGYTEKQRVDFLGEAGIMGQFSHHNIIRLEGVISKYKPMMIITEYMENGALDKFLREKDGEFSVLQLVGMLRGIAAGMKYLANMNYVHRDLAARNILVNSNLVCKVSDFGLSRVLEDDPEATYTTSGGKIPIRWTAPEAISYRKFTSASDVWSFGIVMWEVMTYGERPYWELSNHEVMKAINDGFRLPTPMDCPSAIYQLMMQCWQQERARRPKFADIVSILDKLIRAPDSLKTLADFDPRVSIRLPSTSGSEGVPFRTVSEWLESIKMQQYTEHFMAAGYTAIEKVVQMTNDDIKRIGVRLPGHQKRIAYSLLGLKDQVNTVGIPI

For this assay, the target named is T7-mCul5^K799R (mouse) (UniProt Q9D5V5). The assay is described as follows: co-IP; anti-T7 antibody and protein A/G beads from transiently transfected HeLa lysate (1% Triton X-100 buffer); cells (also Cul5-depleted or EphA2-depleted) treated with 75 µM vanadate (with or without 1 µM MLN4924) for 24 hr or 1 mM pervanadate for 30 min; in one panel DMSO, 1 µM SU6656 or 200 nM Dasatinib for 2 hr before pervanadate (Dasatinib inhibited, SU6656 did not).

With “Igk–Myc hEphA2 WT (from UniProt P29317 24-976) (receptor)”, the binding result is listed as “binds”.

The record behind these values is paper PMC5589800.
